Experimental data as given in patent US11471528B2, “Methods for using extracellular adenosine inhibitors and adenosine receptor inhibitors to enhance immune response and inflammation” (The Government of the United States of America as …, priority 2001, dated 2022).
At least one compound was matched to its structure with a doubt left.

What was measured:
CMS4 tumor cells = assay: CMS4 lung tumors with antigen-specific CTL immunotherapy; type: in vivo; details: BALB/c mice, CMS4 i.v., CTL on day 10; ZM241385 10 mg/kg/day i.p. or caffeine 0.1% w/v in drinking water; FIGS. 12A-C
From the text: BALB/c mice were inoculated i.v. with CMS4 tumor cells (Methylcholanthrene-induced sarcoma, 2.5×10^5 cells) on day zero to induce the formation of lung tumors. […] The lung tumors were subsequently examined on days 17, day 18 and day 24, by sacrificing the mice and evaluating their lungs for the number and size of metastasis by visual inspection.

B16 melanoma cells = assay: B16 melanoma tumor growth; type: in vivo, mice; details: daily i.p., ZM241385 0.2 mg/mouse, caffeine 0.4 mg/mouse, start 28 days after tumor cells; FIG. 14
From the text: […] (immunocompromised nude mice; or immunocompetent C57BL/6 mice) were inoculated subcutaneously with B16 melanoma cells (American Type Culture Collection, Manassas, Va.), or B16-H2-Kd transfected tumor cells (increases the immunogenicity of the cells) on day zero to induce the formation of melanomas. The treatment with adenosine receptor antagonists started 28 days after injection of tumor cells, when the tumor reached 7-9 mm in diameter.
[…]. The delay in tumor growth was greater in immunocompetent C57BL/6 mice, and less so in immunocompromised nude mice. However, as the tumor increases in size, both antagonists slow down tumor growth even in immunocompromised animals. […] In addition, adenosine receptor antagonists appear to improve both anti-tumor immunity and preventing or decreasing angiogenesis.

With `Cn1c(=O)c2c(ncn2C)n(C)c1=O` [caffeine, 1,3,7-thrimethylxantine] the “number of metastatic nodules in the lung” value (CMS4 tumor cells) was “decrease in the number of metastatic nodules” and the tumor growth (B16 melanoma cells) was “tumor retardation that became significant after 3-7 days of treatment”.
